Results are given in words; binding and its absence hold for the method and conditions named. Binding can be weak; no strength is given.
Target: recombinant GAP1
Experiment: ELISA; competitive ELISA with recombinant livin, GAP1 and Ras; GAP1 pre-exposed to livin at indicated concentrations, then binding between Ras and GAP1 read; both purified

binding: binds
B1: recombinant livin (protein, UniProt Q96CA5 1-298)
chain: MGPKDSAKCLHRGPQPSHWAAGDGPTQERCGPRSLGSPVLGLDTCRAWDHVDGQILGQLRPLTEEEEEEGAGATLSRGPAFPGMGSEELRLASFYDWPLTAEVPPELLAAAGFFHTGHQDKVRCFFCYGGLQSWKRGDDPWTEHAKWFPSCQFLLRSKGRDFVHSVQETHSQLLGSWDPWEEPEDAAPVAPSVPASGYPELPTPRREVQSESAQEPGGVSPAEAQRAWWVLEPPGARDVEAQLRRLQEERTCKVCLDRAVSIVFVPCGHLVCAECAPGLQLCPICRAPVRSRVRTFLS

— article PMC8193260
